From PubChem BioAssay AID192 (DTP/NCI, 2004)
The list shows only some results of the screen, not a fair sample: it is rich in T/C values a quarter to a half above the control, in often repeated tests (any T/C) and in doses without a T/C. Other doses and runs of a compound stand elsewhere. T/C: endpoint of the treated group in % of that of the vehicle group. Some doses have a count of surviving animals in place of a T/C: the source files T/C as zero there, which appears to mark a toxic dose or a test without result, not a measured value. Some survivor counts are full or nearly so, which does not show that the dose was tolerated: the source hardly ever lists a survival T/C far under the control, and the zero likely stands for such cases as well. Survivors were counted at the toxicity check, usually on the fifth day, unless a day is given; later deaths do not show. Schedule codes are those of the source, taken here to give the interval after Q, in days (D) or hours (H), and the number of doses after X. For survival time, the PubChem record calls one and a half times the control and up active, and a quarter to a half above the control has no call in these data; cut-offs in other NCI protocols can differ. Some entries hold several experiments; the values are given in rising order. Some T/C values carry the count of animals alive at the toxicity check (mostly the fifth day); where none is given, no animal had died by that day.

Tested on: BDF1 mice, B16 melanoma ip, median survival T/C
Assay: NCI In Vivo Anticancer Drug Screen. Data for tumor model B16 Melanoma (intraperitoneal) in B6D2F1 (BDF1) mice
Details: T/C endpoint: median survival time, higher T/C = longer survival
Outline: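 Survival or tumor size is measured after treatment of tumor-bearing mice and normalised to the vehicle-treated control group.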

[1] = dose: 100.0 mg/kg/injection, schedule: Q01DX009 (ip), vehicle: Klucel (hydroxypropylcellulose) (HPC)
[2] = dose: 200.0 mg/kg/injection, schedule: Q01DX009 (ip), vehicle: Klucel (hydroxypropylcellulose) (HPC)
[3] = dose: 400.0 mg/kg/injection, schedule: Q01DX009 (ip), vehicle: Klucel (hydroxypropylcellulose) (HPC)
[4] = dose: 100.0 mg/kg/injection, schedule: Q01DX009 (ip), vehicle: saline
[5] = dose: 10.0 mg/kg/injection, schedule: Q01DX009 (ip), vehicle: saline
[6] = dose: 50.0 mg/kg/injection, schedule: Q01DX009 (ip), vehicle: saline

`CCCCCCCCCCCCCCCCCCNC(=O)N(CC)c1ccccc1C` was tested, and the survivor count [1] was 10 of 10, the survivor count [2] was 10 of 10 and the survivor count [3] was 9 of 9.
With `Brc1ccc2c(c1)-c1ccccc1C1=NCCN12` the survivor count (dose: 20.0 mg/kg/injection, schedule: Q01DX009 (ip), vehicle: Klucel (hydroxypropylcellulose) (HPC)) was 4 of 6, the survivor count (dose: 20.0 mg/kg/injection, schedule: Q04DX003 (ip), vehicle: saline) was 8 of 10 and the survivor count (dose: 40.0 mg/kg/injection, schedule: Q04DX003 (ip), vehicle: saline) was 1 of 10.
With `CCCCCOC(CN)C(Cl)(Cl)Cl` (centres undefined) the survivor count [4] was 10 of 10.
With `CCN(CC)Cc1cc2[nH]c3c4ccc(Cl)cc4ncc3c2cc1OC` the T/C (dose: 50.0 mg/kg/injection, schedule: Q01DX009 (ip), vehicle: saline with Tween-80) was 126 % of control and the survivor count (dose: 100.0 mg/kg/injection, schedule: Q01DX009 (ip), vehicle: saline with Tween-80) was 7 of 10.
`CNCCNc1ccc(NCCNC)c2c1C(=O)c1ccccc1C2=O` was tested, and the survivor count (dose: 16.0 mg/kg/injection, schedule: Q01DX009 (ip), vehicle: acid diluted with saline) was 10 of 10 and the survivor count (dose: 32.0 mg/kg/injection, schedule: Q01DX009 (ip), vehicle: acid diluted with saline) was 10 of 10.
With `O=NN(CCCl)C(=O)NC1[C@H](O)CCC[C@@H]1O` (some centres undefined) the T/C (dose: 0.32 mg/kg/injection, schedule: Q01DX009 (ip), vehicle: saline) was 137 % of control and the survivor count [5] was 10 of 10.
With `c1ccc(-c2csc3c4ccccc4c4ccccc4[n+]23)cc1` the survivor count (dose: 4.0 mg/kg/injection, schedule: Q01DX009 (ip), vehicle: saline with Tween-80) was 3 of 6 and the survivor count (dose: 8.0 mg/kg/injection, schedule: Q01DX009 (ip), vehicle: saline with Tween-80) was 0 of 6.
With `N#CCCCc1ccccc1` the survivor count [2] was 9 of 10.
`COc1ccccc1NC(=O)Nc1cccc(C)c1C` was tested, and the survivor count [3] was 10 of 10.
With `O=C[C@@H](CO)O[C@H](C=O)n1cnc2c(=O)[nH]cnc21` the survivor count (dose: 300.0 mg/kg/injection, schedule: Q01DX009 (ip), vehicle: saline) was 6 of 6.
`N#CC(Br)C(N)=O` (centres undefined) was tested, and the survivor count [5] was 10 of 10 and the survivor count (dose: 20.0 mg/kg/injection, schedule: Q01DX009 (ip), vehicle: saline) was 4 of 10.
In the case of `FC(F)(F)c1ccc2c(c1)N(CCCN1CCN(CCN3CCCCC3)CC1)c1ccccc1S2`, the T/C (dose: 3.12 mg/kg/injection, schedule: Q01DX009 (ip), vehicle: saline) is reported as 126 % of control, the survivor count (dose: 12.5 mg/kg/injection, schedule: Q01DX009 (ip), vehicle: saline) is reported as 10 of 10 and the survivor count (dose: 25.0 mg/kg/injection, schedule: Q01DX009 (ip), vehicle: saline) is reported as 9 of 10. For the same molecule, the survivor count [6] was 8 of 10.
In the case of `COc1cc([N+](=O)[O-])c2ncccc2c1`, the survivor count [3] is reported as 6 of 6.
For `CCOC(=O)C(Cc1c[nH]c2cc(N)ccc12)(NC(C)=O)C(=O)OCC`, the survivor count [3] was 9 of 10.
For `Oc1ccccc1C(Nc1nc2ccccc2s1)c1ccc2cccnc2c1O` (centres undefined), the T/C [1] was 126 % of control, the T/C [2] was 129 [9 of 10 alive] and 141 % of control and the survivor count (dose: 300.0 mg/kg/injection, schedule: Q01DX009 (ip), vehicle: Klucel (hydroxypropylcellulose) (HPC)) was 10 of 10. For the same molecule, the T/C [3] was 131 and 147 % of control.
For `CCCCNC1=C(N2CC2)C(=O)C(NCCCC)=C(N2CC2)C1=O`, the T/C (dose: 5.0 mg/kg/injection, schedule: Q01DX009 (ip), vehicle: saline) was 134 % of control and the T/C [5] was 136 % of control [9 of 10 alive].
For `CCNCCCN`, the survivor count [6] was 10 of 10 and the survivor count [4] was 10 of 10.
